# From PMC8384837
# Substitutions are numbered along the chain they refer to. Some of the results follow. For some assays here: At the low end of the ranking, values are background and their order means little. For some assays here: The source does not settle which construct or isoform was used.
# Experiments:
# Settings in all cases: yeast three-hybrid, YBZ-1, SC-Leu-His + 0.5 mM 3-AT, 4 days
# [1] = molecular target: T1, PUM1 PUF domain R5-GVE C1007G + R1008V + Q1011E (UniProt Q14671)
# T1 sequence: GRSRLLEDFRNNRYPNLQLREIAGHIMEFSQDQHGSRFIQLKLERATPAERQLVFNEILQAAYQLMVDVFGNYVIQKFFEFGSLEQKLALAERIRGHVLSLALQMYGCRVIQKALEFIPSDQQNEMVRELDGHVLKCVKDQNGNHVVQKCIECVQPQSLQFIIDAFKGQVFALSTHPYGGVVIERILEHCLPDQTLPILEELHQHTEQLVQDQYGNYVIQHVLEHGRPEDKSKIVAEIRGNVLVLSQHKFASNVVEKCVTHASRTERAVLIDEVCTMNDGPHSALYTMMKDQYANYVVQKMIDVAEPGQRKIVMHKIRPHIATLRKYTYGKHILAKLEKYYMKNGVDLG
# [2] = molecular target: T2, PUM1 PUF domain R5-GYV C1007G + R1008Y + Q1011V (UniProt Q14671)
# T2 sequence: T1 sequence with V181Y, E184V
# [3] = molecular target: T3, PUM1 PUF domain R5-HLY C1007H + R1008L + Q1011Y (UniProt Q14671)
# T3 sequence: T1 sequence with G180H, V181L, E184Y
# [4] = molecular target: T4, PUM1 PUF domain R5-IRP C1007I + Q1011P (UniProt Q14671)
# T4 sequence: T1 sequence with G180I, V181R, E184P
# [5] = molecular target: T5, PUM1 PUF domain R5-ISR C1007I + R1008S + Q1011R (Homo sapiens) (UniProt Q14671)
# T5 sequence: T1 sequence with G180I, V181S, E184R
# [6] = molecular target: T6, PUM1 PUF domain R5-KLC C1007K + R1008L + Q1011C (Homo sapiens) (UniProt Q14671)
# T6 sequence: T1 sequence with G180K, V181L, E184C
# [7] = molecular target: T7, PUM1 PUF domain R5-KLH C1007K + R1008L + Q1011H (Homo sapiens) (UniProt Q14671)
# T7 sequence: T1 sequence with G180K, V181L, E184H
# [8] = molecular target: T8, PUM1 PUF domain R5-KMV C1007K + R1008M + Q1011V (Homo sapiens) (UniProt Q14671)
# T8 sequence: T1 sequence with G180K, V181M, E184V
# [9] = molecular target: T9, PUM1 PUF domain R5-KQD C1007K + R1008Q + Q1011D (Homo sapiens) (UniProt Q14671)
# T9 sequence: T1 sequence with G180K, V181Q, E184D
# [10] = molecular target: T10, PUM1 PUF domain R5-KTV C1007K + R1008T + Q1011V (Homo sapiens) (UniProt Q14671)
# T10 sequence: T1 sequence with G180K, V181T, E184V
# [11] = molecular target: T11, PUM1 PUF domain R5-KVE C1007K + R1008V + Q1011E (Homo sapiens) (UniProt Q14671)
# T11 sequence: T1 sequence with G180K
# [12] = molecular target: T12, PUM1 PUF domain R5-KWG C1007K + R1008W + Q1011G (Homo sapiens) (UniProt Q14671)
# T12 sequence: T1 sequence with G180K, V181W, E184G
# [13] = molecular target: T13, PUM1 PUF domain R5-LFQ C1007L + R1008F (Homo sapiens) (UniProt Q14671)
# T13 sequence: T1 sequence with G180L, V181F, E184Q
# [14] = molecular target: T14, PUM1 PUF domain R5-LSR C1007L + R1008S + Q1011R (Homo sapiens) (UniProt Q14671)
# T14 sequence: T1 sequence with G180L, V181S, E184R
# [15] = molecular target: T15, PUM1 PUF domain R5-LWR C1007L + R1008W + Q1011R (Homo sapiens) (UniProt Q14671)
# T15 sequence: T1 sequence with G180L, V181W, E184R
# [16] = molecular target: T16, PUM1 PUF domain R5-LYL C1007L + R1008Y + Q1011L (Homo sapiens) (UniProt Q14671)
# T16 sequence: T1 sequence with G180L, V181Y, E184L
# [17] = molecular target: T17, PUM1 PUF domain R5-LYM C1007L + R1008Y + Q1011M (Homo sapiens) (UniProt Q14671)
# T17 sequence: T1 sequence with G180L, V181Y, E184M
# [18] = molecular target: T18, PUM1 PUF domain R5-MGR C1007M + R1008G + Q1011R (Homo sapiens) (UniProt Q14671)
# T18 sequence: T1 sequence with G180M, V181G, E184R
# [19] = molecular target: T19, PUM1 PUF domain R5-MSR C1007M + R1008S + Q1011R (Homo sapiens) (UniProt Q14671)
# T19 sequence: T1 sequence with G180M, V181S, E184R
# [20] = molecular target: T20, PUM1 PUF domain R5-PHQ R6-SWD C1007P + R1008H + N1043S + Y1044W + Q1047D (UniProt Q14671)
# T20 sequence: T1 sequence with G180P, V181H, E184Q, N216S, Y217W, Q220D
# [21] = molecular target: T21, PUM1 PUF domain R5-PRC C1007P + Q1011C (UniProt Q14671)
# T21 sequence: T1 sequence with G180P, V181R, E184C
# [22] = molecular target: T22, PUM1 PUF domain R5-QCL C1007Q + R1008C + Q1011L (Homo sapiens) (UniProt Q14671)
# T22 sequence: T1 sequence with G180Q, V181C, E184L
# [23] = molecular target: T23, PUM1 PUF domain R5-QLV C1007Q + R1008L + Q1011V (UniProt Q14671)
# T23 sequence: T1 sequence with G180Q, V181L, E184V
sequence,measurement,setting,value
GGCUAGAACUAGUGGAUCCCCCGGCGCCCGGCGGCUCGAGCCCGGGUAAGUGUUAAUAGUCUGCAUGCCGCCGGGCGCCAUGCCUGCAGGUCGACUCUAGAAAACAUG,binding signal (log2 enrichment (interaction score)),[1],< -7.14
same,binding signal (log2 enrichment (interaction score)),[2],-6.6
same,binding signal (log2 enrichment (interaction score)),[3],< -9.84
same,binding signal (log2 enrichment (interaction score)),[4],-2.5
same,binding signal (log2 enrichment (interaction score)),[5],-1.12
same,binding signal (log2 enrichment (interaction score)),[6],0.05
same,binding signal (log2 enrichment (interaction score)),[7],-1.79
same,binding signal (log2 enrichment (interaction score)),[8],-0.07
same,binding signal (log2 enrichment (interaction score)),[9],-0.05
same,binding signal (log2 enrichment (interaction score)),[10],0.3
same,binding signal (log2 enrichment (interaction score)),[11],-1.1
same,binding signal (log2 enrichment (interaction score)),[12],-0.59
same,binding signal (log2 enrichment (interaction score)),[13],-0.09
same,binding signal (log2 enrichment (interaction score)),[14],-1.73
same,binding signal (log2 enrichment (interaction score)),[15],-0.91
same,binding signal (log2 enrichment (interaction score)),[16],0.11
same,binding signal (log2 enrichment (interaction score)),[17],0.4
same,binding signal (log2 enrichment (interaction score)),[18],-0.18
same,binding signal (log2 enrichment (interaction score)),[19],-0.29
same,binding signal (log2 enrichment (interaction score)),[20],-8.45
same,binding signal (log2 enrichment (interaction score)),[21],-5.56
same,binding signal (log2 enrichment (interaction score)),[22],-0.62
same,binding signal (log2 enrichment (interaction score)),[23],-2.86

# Random excerpt: two entries already listed.
sequence,measurement,setting,value
GGCUAGAACUAGUGGAUCCCCCGGCGCCCGGCGGCUCGAGCCCGGGUAAGUGUUAAUAGUCUGCAUGCCGCCGGGCGCCAUGCCUGCAGGUCGACUCUAGAAAACAUG,binding signal (log2 enrichment (interaction score)),[12],-0.59
same,binding signal (log2 enrichment (interaction score)),[8],-0.07
